According to PMC11705626:
No constants are given. Whether binding was seen depends on the method and setting. In cells and extracts the contact can be indirect. Some binding calls cover weakened binding; strength is not graded here.

Molecular target: T1, Caveolin-1 (mouse (endogenous in b. End3)) (UniProt P49817)
T1 sequence: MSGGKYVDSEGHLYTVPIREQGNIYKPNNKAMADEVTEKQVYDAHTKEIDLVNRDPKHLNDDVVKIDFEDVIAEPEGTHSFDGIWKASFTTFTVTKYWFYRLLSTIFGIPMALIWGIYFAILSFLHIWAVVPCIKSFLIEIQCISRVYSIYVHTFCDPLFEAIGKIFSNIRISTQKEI
Assay: co-IP; anti-Cav-1 antibody (or normal rabbit IgG) on Protein G magnetic beads, 300 ug sample protein per group, overnight at 4 C, washed with PBS-T (0.5% Tween-20, pH 7.4), western blot; brain endothelial cells with or without OGD/R and Cav-1 siRNA

binding: binds
B1: Occludin (protein, UniProt Q61146 1-521)
chain: MSVRPFESPPPYRPDEFKPNHYAPSNDMYGGEMHVRPMLSQPAYSFYPEDEILHFYKWTSPPGVIRILSMLIIVMCIAIFACVASTLAWDRGYGTGLFGGSLNYPYSGFGYGGGYGGGYGGYGYGYGGYTDPRAAKGFLLAMAAFCFIASLVIFVTSVIRSGMSRTRRYYLIVIIVSAILGIMVFIATIVYIMGVNPTAQASGSMYGSQIYMICNQFYTPGGTGLYVDQYLYHYCVVDPQEAIAIVLGFMIIVAFALIIFFAVKTRRKMDRYDKSNILWDKEHIYDEQPPNVEEWVKNVSAGTQDMPPPPSDYAERVDSPMAYSSNGKVNGKRSYPESFYKSTPLVPEVAQEIPLTLSVDDFRQPRYSSNGNLETPSKRAPTKGKAGKGKRTDPDHYETDYTTGGESCEELEEDWVREYPPITSDQQRQLYKRNFDAGLQEYKSLQAELDDVNKELSRLDKELDDYREESEEYMAAADEYNRLKQVKGSADYKSKRNYCKQLKSKLSHIKRMVGDYDRRKP
